Measured values taken from PMC7082118 (Oncotarget, 2020).
Where two headings read alike, the source gives them in different places.

Legend:
MOLM-13-QR2 cells = experiment: cells; details: Homo sapiens, read-out: IC50, cell viability
MOLM-13-QR cells = experiment: cells; details: Homo sapiens, read-out: IC50, cell viability
MV4-11 tumors = experiment: MV4-11 xenograft mouse model; details: in vivo, po
[1] = test system: midostaurin-resistant MOLM-14 cells; experiment: cells; details: Homo sapiens, MOLM-14, read-out: IC50 against midostaurin-resistant MOLM-14 cells
MOLM-14-MR2 tumors = experiment: MOLM-14-MR2 xenograft mouse model; details: in vivo, po
MOLM-14-MR cells = experiment: cells; details: Homo sapiens, 72 h, read-out: IC50, cell viability
[2] = test system: midostaurin-resistant FLT3-ITD tumors; details: mouse, in vivo
FLT3 signaling = experiment: FLT3 inhibitor washout experiment in MOLM-14 cells; assay type: cell-based, human
MOLM-14-MR2 cells = experiment: cells; details: Homo sapiens, 72 h, read-out: IC50, cell viability
EOL-1 cells = experiment: Cell viability assay (CellTiter-Glo 2.0); assay type: cell-based; details: Homo sapiens, EOL1, 72 h, read-out: IC50, cell viability
Method: (§1) Human AML cell lines MV4-11, Kasumi-1, HL-60, and THP-1 were purchased from the American Type Culture Collection (Manassas, Virginia, USA). MV4-11 cells were cultured in Iscove’s Modified Dulbecco’s Medium (IMDM; Thermo Fisher Scientific, Waltham, Massachusetts, USA) supplemented with 10% (vol/vol) heat-inactivated fetal bovine serum (FBS; GE Healthcare Ltd, Chicago, Illinois, USA). […] HL-60 cells were cultured in IMDM supplemented with 20% (vol/vol) heat-inactivated FBS. […] Human AML cell lines, MOLM-13, MOLM-14, EOL-1, and OCI-AML3, were purchased from Leibniz-Institut DSMZ-Deutsche Sammlung von Mikroorganismen und Zellkulturen GmbH.
(§2) The amount of ATP in viable cells was quantified as a luminescent signal using the CellTiter-Glo 2.0 Assay (Promega Corporation, Madison, Wisconsin, USA) and EnVision (PerkinElmer Inc, Waltham, Massachusetts, USA) to determine the number of viable cells according to the manufacturers’ instructions.

Kasumi-1 cells = experiment: Cell viability assay (CellTiter-Glo 2.0); assay type: cell-based; details: Homo sapiens, Kasumi 1, 72 h, read-out: IC50, cell viability
Method: as §1, §2

MV4-11 cells = experiment: Cell viability assay (CellTiter-Glo 2.0); assay type: cell-based; details: Homo sapiens, MV4-11, 72 h, read-out: IC50, cell viability
Method: as §1, §2

MOLM-13 cells = experiment: Cell viability assay (CellTiter-Glo 2.0); assay type: cell-based; details: Homo sapiens
Method: as §1, §2

HL-60 cells = experiment: Cell viability assay (CellTiter-Glo 2.0); assay type: cell-based; details: Homo sapiens, HL-60, 72 h, read-out: IC50, cell viability
Method: as §1, §2

MOLM-14 cells = experiment: Cell viability assay (CellTiter-Glo 2.0); assay type: cell-based, human; details: read-out: IC50, cell viability
Method: as §1, §2

What does the source list for `CO[C@@H]1[C@H](N(C)C(=O)c2ccccc2)C[C@H]2O[C@]1(C)n1c3ccccc3c3c4c(c5c6ccccc6n2c5c31)C(=O)NC4` [Midostaurin, midostaurin]?
IC50 (MOLM-13-QR2 cells): 24.2 nM; IC50 (MOLM-13-QR cells): 38.6 nM; EC90, tumor growth inhibition (MV4-11 tumors): 19.34 mg/kg; IC50 [1]: 45.1 to 106 nM; EC50, tumor growth inhibition (MOLM-14-MR2 tumors): > 100 mg/kg; IC50 (MOLM-14-MR cells): 106 nM; EC50, tumor growth inhibition [2]: > 100 mg/kg; Long-term durability of inhibition of FLT3 signaling after compound withdrawal (FLT3 signaling): no longer able to inhibit FLT3 signaling at 24 hours; IC50 (MOLM-14-MR2 cells): 45.1 nM; IC50 (EOL-1 cells): 7.86 nM; IC50 (Kasumi-1 cells): 185 nM; IC50 (MV4-11 cells): 7.56 nM; IC50 (MOLM-13 cells; MOLM-13, 72 h, read-out: IC50, cell viability): 10.7 nM; IC50 (MOLM-13 cells; MOLM-13, read-out: IC50, cell viability): 7.4 nM; IC50 (HL-60 cells): 806 nM; IC50 (MOLM-14 cells): 10.1 nM
